Data on one molecule can be found in publication doi:10.1101/142505.

Results are given in words; binding and its absence hold for the method and conditions named. Tags and fused reporters may be left off the sequences shown.

In this experiment the target is T1, 6XHis-GlActin (Giardia lamblia), P51775.
T1 chain: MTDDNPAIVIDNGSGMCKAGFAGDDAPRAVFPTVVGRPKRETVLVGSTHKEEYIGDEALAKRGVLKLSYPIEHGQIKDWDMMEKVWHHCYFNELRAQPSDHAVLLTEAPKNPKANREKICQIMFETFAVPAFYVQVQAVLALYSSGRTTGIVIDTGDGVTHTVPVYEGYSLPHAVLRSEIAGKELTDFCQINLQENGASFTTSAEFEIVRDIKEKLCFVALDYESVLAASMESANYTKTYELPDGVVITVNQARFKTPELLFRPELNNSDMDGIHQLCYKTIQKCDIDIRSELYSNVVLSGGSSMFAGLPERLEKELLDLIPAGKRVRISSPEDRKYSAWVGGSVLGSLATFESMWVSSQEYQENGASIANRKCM
Briefly: far-Western, overlay or dot blot. As to conditions: remark: other sources report otherwise.

B1: recombinant wild type GST-fused Gl14-3-3, E2RU97 1-248 (protein)
chain: MAEAFTREDYVFMAQLNENAERYDEMVETMRKISGMEGELSDKERNLLSVAYKNVIGPRRAAWRIVSSIEAKEKGRQKPNAKRIEQIRVYRQKIEKELSDICNDILKLLQEQFVPRSTNADAKVFYYKMQGDYYRYLAEYSSGEDKEKIAGSALNAYNSAFEISQQLPPTHPIRLGLALNFSVFYYEILASPDRACELARKAFDAAITDLDKLTEESYKDSTLIMQLLRDNLNLWVTDSAGDDNAEEK
modifications: here or on the partner: a fraction phosphorylated on serine (anti-pSer blot); residues not stated
As to B1, the binding entry is recorded as “no binding (tested: 10 μg/ml)”.
